Measurements reported in PubChem BioAssay AID1259405 (NCATS, 2018).
Assay: 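Silenced genes that increase secreted GFP made by CHO cells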 (primary screen). Cell system: Chinese hamster CHO-K1 ovary cells with stable secreted eGFP expression. Knock-down reagent: single siRNA against mouse genes, 0.8 pmol siRNA per well (2 µl of 400 nM stock). Duration: 3 days. Read-out: 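Percent of the per-plate non-targeting control median for intracellular GFP per well by laser scanning cytometry and for cell viability by ATP luminescence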. Reading the numbers: GFP, % of control: higher = more GFP per well, higher productivity; viability (ATP), % of control: higher = more viable cells (more ATP). Call rule: 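Called active when intracellular GFP, relative to negative control, is at or above 120%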.
The deposit covers about 50,000 reagents; below is a part drawn at random. About 4,000 of all reagents (8%) were called active. 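Mouse siRNA library applied to hamster cells; one well for each siRNA.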 Reagents against one gene are numbered here.

Knock-down of Mrc2 (GeneID 17534) #1 resulted in: GFP, % of control 75.5; viability (ATP), % of control 161; inactive.
Against Mrc2 (GeneID 17534) #2 the deposit lists GFP, % of control 108; viability (ATP), % of control 76; inactive.
For Ascc2 (GeneID 75452) #1, the values are GFP, % of control 75.4; viability (ATP), % of control 55.9; inactive.
For Ascc2 (GeneID 75452) #2, the entry reads GFP, % of control 83.4; viability (ATP), % of control 78.4; inactive.
Ascc2 (GeneID 75452) #3 showed GFP, % of control 126; viability (ATP), % of control 77.7; active.
Depletion of H2bc26 (GeneID 382522) #1 resulted in: GFP, % of control 87.5; viability (ATP), % of control 113; inactive.
H2bc26 (GeneID 382522) #2 gave GFP, % of control 81.2; viability (ATP), % of control 83.4; inactive.
H2bc26 (GeneID 382522) #3 gave GFP, % of control 111; viability (ATP), % of control 85.3; inactive.
After knock-down of Prg2 (GeneID 19074) #1 the results were GFP, % of control 41.5; viability (ATP), % of control 25.3; inactive.
For Prg2 (GeneID 19074) #2, the entry reads GFP, % of control 82.6; viability (ATP), % of control 83.6; inactive.
With knock-down of Prg2 (GeneID 19074) #3 the results were GFP, % of control 106; viability (ATP), % of control 96.5; inactive.
After knock-down of Tspyl2 (GeneID 52808) #1 the results were GFP, % of control 96.3; viability (ATP), % of control 48.8; inactive.
Knock-down of Tspyl2 (GeneID 52808) #2 gave: GFP, % of control 77.5; viability (ATP), % of control 61.4; inactive.
Tspyl2 (GeneID 52808) #3 gave GFP, % of control 74.3; viability (ATP), % of control 72.6; inactive.
Ccdc121rt1 (GeneID 403180) #1 showed GFP, % of control 65.3; viability (ATP), % of control 74.7; inactive.
Ccdc121rt1 (GeneID 403180) #2 gave GFP, % of control 161; viability (ATP), % of control 117; active.
With knock-down of Ccdc121rt1 (GeneID 403180) #3, the record shows GFP, % of control 131; viability (ATP), % of control 167; active.
9230109A22Rik (GeneID 223413) #1 scored GFP, % of control 96.1; viability (ATP), % of control 98.8; inactive.
9230109A22Rik (GeneID 223413) #2 scored GFP, % of control 61.7; viability (ATP), % of control 78.5; inactive.
Knock-down of 9230109A22Rik (GeneID 223413) #3 resulted in: GFP, % of control 79; viability (ATP), % of control 106; inactive.
Tyms (GeneID 22171) #1 showed GFP, % of control 61.5; viability (ATP), % of control 44.2; inactive.
For Tyms (GeneID 22171) #2 the deposit lists GFP, % of control 50; viability (ATP), % of control 44.8; inactive.
Tyms (GeneID 22171) #3 gave GFP, % of control 91.2; viability (ATP), % of control 108; inactive.
With knock-down of Ank1 (GeneID 11733) #1, the record shows GFP, % of control 94.6; viability (ATP), % of control 59.3; inactive.
Depletion of Ank1 (GeneID 11733) #2 gave: GFP, % of control 72.8; viability (ATP), % of control 72.2; inactive.
Silencing of Vwf (GeneID 22371) #1 gave: GFP, % of control 171; viability (ATP), % of control 143; active.
Vwf (GeneID 22371) #2 scored GFP, % of control 88.3; viability (ATP), % of control 79.7; inactive.

Part of the list above, set out differently.
Target gene,reagent no.,"GFP, % of control","viability (ATP), % of control",Outcome
H2bc26 (GeneID 382522),2,81.2,83.4,inactive
H2bc26 (GeneID 382522),3,111,85.3,inactive
